Test results reported in US20230218771A1, “SELF-ASSEMBLING PRODRUGS AS IMMUNE BOOSTERS FOR CANCER IMMUNOTHERAPY” (priority 2020, published 2023).
Not every detail of the peptide structures is certain; ends, links or a residue may be inferred. Where a SMILES comes first, the peptide text is derived from it. Bridges are numbered along the chain shown (N, C = ends). [ ]: non-standard residue; d: D form. The star is where a group is joined. ξ: configuration not given here. X1 = CC[C@@]1(OC(=O)OCCSSC[C@H](NC(C)=O)C(=O)*)C(=O)OCc2c1cc1n(c2=O)Cc2cc3ccccc3nc2-1; S(CH2)2OCO2(CPT-20-yl) = CC[C@@]1(OC(=O)OCCS*)C(=O)OCc2c1cc1n(c2=O)Cc2cc3ccccc3nc2-1; ξR = N=C(N)NCCCC(N)C(=O)O

Tests used:
GL-261 cells = assay: GL-261 rechallenge of long-term survivors (CDA series); assay type: in vivo, C57BL/6 mice; settings: rechallenged on day 70
4T1 breast cancer = assay: Orthotopic 4T1 metastatic breast cancer model (CDA series); assay type: in vivo, BALB/c mice; settings: day 28, H&E staining and whole lung observation
GL-261 tumors = assay: Flow cytometry and cytokine detection in GL-261 tumors (CDA series); assay type: in vivo, C57BL/6 mice; settings: tumor tissue, 3 days after treatment

Structure (SMILES): CC[C@@]1(OC(=O)OCCSSC[C@H](NC(C)=O)C(=O)NCCCC[C@H](NC(=O)[C@H](CSSCCOC(=O)O[C@]2(CC)C(=O)OCc3c2cc2n(c3=O)Cc3cc4ccccc4nc3-2)NC(C)=O)C(=O)N[C@H]2CSSC[C@@H](C(N)=O)NC(=O)[C@H](CC(=O)O)NC(=O)[C@@H]3CCCN3C(=O)CNC(=O)C(CCCNC(=N)N)NC(=O)[C@H](CC(=O)O)NC(=O)CNC(=O)[C@H](CCCNC(=N)N)NC2=O)C(=O)OCc2c1cc1n(c2=O)Cc2cc3ccccc3nc2-1 (stereo partly drawn) [diCPT-iRGD] (Ac-C(S(CH2)2OCO2(CPT-20-yl))K(X1)CRGD[ξR]GPDC-NH2; disulfide 3-11)
- tumors after rechallenge (bioluminescence signal of GL-261 cells) (GL-261 cells): developed tumors after rechallenge
- lung metastasis (4T1 breast cancer): substantially decreased, but not completely inhibited
- secretion of type I IFNs and CXCL10 chemokine (GL-261 tumors): markedly increased
